Positions count from the first letter of the chain named. Some of the results follow. At the low end of the ranking, values are background and their order means little.
How the values were obtained:
Conditions in all cases: yeast three-hybrid, YBZ-1, SC-Leu-His + 0.5 mM 3-AT, 4 days
[1] = molecular target: T1, PUM1 PUF domain R3-FSN C935F + R936S + Q939N (UniProt Q14671)
T1 sequence: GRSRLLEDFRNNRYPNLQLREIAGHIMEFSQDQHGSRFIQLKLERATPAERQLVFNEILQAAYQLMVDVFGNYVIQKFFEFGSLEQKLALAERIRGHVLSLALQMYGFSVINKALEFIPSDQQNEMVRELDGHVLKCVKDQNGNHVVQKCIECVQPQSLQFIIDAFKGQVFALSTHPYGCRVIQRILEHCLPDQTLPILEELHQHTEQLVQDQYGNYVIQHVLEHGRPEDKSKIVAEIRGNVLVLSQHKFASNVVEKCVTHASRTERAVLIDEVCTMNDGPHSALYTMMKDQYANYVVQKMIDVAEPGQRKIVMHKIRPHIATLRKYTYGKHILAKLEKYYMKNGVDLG

[2] = molecular target: T2, PUM1 PUF domain R3-LNA C935L + R936N + Q939A (UniProt Q14671)
T2 sequence: T1 sequence with F108L, S109N, N112A

[3] = molecular target: T3, PUM1 PUF domain R3-LNG C935L + R936N + Q939G (UniProt Q14671)
T3 sequence: T1 sequence with F108L, S109N, N112G

[4] = molecular target: T4, PUM1 PUF domain R3-LSE C935L + R936S + Q939E (UniProt Q14671)
T4 sequence: T1 sequence with F108L, N112E

[5] = molecular target: T5, PUM1 PUF domain R3-LSN C935L + R936S + Q939N (UniProt Q14671)
T5 sequence: T1 sequence with F108L

[6] = molecular target: T6, PUM1 PUF domain R3-LSQ C935L + R936S (UniProt Q14671)
T6 sequence: T1 sequence with F108L, N112Q

[7] = molecular target: T7, PUM1 PUF domain R3-MCG C935M + R936C + Q939G (UniProt Q14671)
T7 sequence: T1 sequence with F108M, S109C, N112G

[8] = molecular target: T8, PUM1 PUF domain R3-NPG C935N + R936P + Q939G (UniProt Q14671)
T8 sequence: T1 sequence with F108N, S109P, N112G

[9] = molecular target: T9, PUM1 PUF domain R3-QPE C935Q + R936P + Q939E (UniProt Q14671)
T9 sequence: T1 sequence with F108Q, S109P, N112E

[10] = molecular target: T10, PUM1 PUF domain R3-QRV C935Q + Q939V (UniProt Q14671)
T10 sequence: T1 sequence with F108Q, S109R, N112V

[11] = molecular target: T11, PUM1 PUF domain R3-RAH C935R + R936A + Q939H (UniProt Q14671)
T11 sequence: T1 sequence with F108R, S109A, N112H

[12] = molecular target: T12, PUM1 PUF domain R3-RAM C935R + R936A + Q939M (UniProt Q14671)
T12 sequence: T1 sequence with F108R, S109A, N112M

[13] = molecular target: T13, PUM1 PUF domain R3-RCD C935R + R936C + Q939D (UniProt Q14671)
T13 sequence: T1 sequence with F108R, S109C, N112D

[14] = molecular target: T14, PUM1 PUF domain R3-RDS C935R + R936D + Q939S (UniProt Q14671)
T14 sequence: T1 sequence with F108R, S109D, N112S

[15] = molecular target: T15, PUM1 PUF domain R3-RIA C935R + R936I + Q939A (UniProt Q14671)
T15 sequence: T1 sequence with F108R, S109I, N112A

[16] = molecular target: T16, PUM1 PUF domain R3-RIR C935R + R936I + Q939R (UniProt Q14671)
T16 sequence: T1 sequence with F108R, S109I, N112R

[17] = molecular target: T17, PUM1 PUF domain R3-RIY C935R + R936I + Q939Y (UniProt Q14671)
T17 sequence: T1 sequence with F108R, S109I, N112Y

[18] = molecular target: T18, PUM1 PUF domain R3-RMK C935R + R936M + Q939K (UniProt Q14671)
T18 sequence: T1 sequence with F108R, S109M, N112K

[19] = molecular target: T19, PUM1 PUF domain R3-RQW C935R + R936Q + Q939W (UniProt Q14671)
T19 sequence: T1 sequence with F108R, S109Q, N112W

[20] = molecular target: T20, PUM1 PUF domain R3-RRM C935R + Q939M (UniProt Q14671)
T20 sequence: T1 sequence with F108R, S109R, N112M

## GGCUAGAACUAGUGGAUCCCCCGGCGCCCGGCGGCUCGAGCCCGGGUAAGUGUAAAUAGUCUGCAUGCCGCCGGGCGCCAUGCCUGCAGGUCGACUCUAGAAAACAUG
[1]
  binding signal (log2 enrichment (interaction score)): < -6.8
[2]
  binding signal (log2 enrichment (interaction score)): < -7.98
[3]
  binding signal (log2 enrichment (interaction score)): < -8.8
[4]
  binding signal (log2 enrichment (interaction score)): < -10.1
[5]
  binding signal (log2 enrichment (interaction score)): < -7.38
[6]
  binding signal (log2 enrichment (interaction score)): < -8.48
[7]
  binding signal (log2 enrichment (interaction score)): < -7.31
[8]
  binding signal (log2 enrichment (interaction score)): < -6.92
[9]
  binding signal (log2 enrichment (interaction score)): < -7.9
[10]
  binding signal (log2 enrichment (interaction score)): < -7.29
[11]
  binding signal (log2 enrichment (interaction score)): < -8.2
[12]
  binding signal (log2 enrichment (interaction score)): < -7.39
[13]
  binding signal (log2 enrichment (interaction score)): < -7.26
[14]
  binding signal (log2 enrichment (interaction score)): < -9
[15]
  binding signal (log2 enrichment (interaction score)): < -7.17
[16]
  binding signal (log2 enrichment (interaction score)): < -9.57
[17]
  binding signal (log2 enrichment (interaction score)): < -7.12
[18]
  binding signal (log2 enrichment (interaction score)): < -6.25
[19]
  binding signal (log2 enrichment (interaction score)): < -7.65
[20]
  binding signal (log2 enrichment (interaction score)): < -6.89
